Results on one molecule are retold here after paper PMC10458444 (Viruses, 2023).

Where a name gives a salt, the structure may show the parent alone.

Common to all, as to assay: microbe, parasite or virus in culture
What all share (assay type): cell-based

For one assay, the system named is SARS-CoV PsV. The note with it: Severe acute respiratory syndrome coronavirus, 48 h, read-out: IC50, inhibition of SARS-CoV PsV infection.
The next assay has as its system MERS-CoV PsV. The following applies: Middle East respiratory syndrome-related coronavirus, 48 h, read-out: IC50, inhibition of MERS-CoV PsV infection.
In a further assay the test system is SARS-CoV-2 (D614) PsV. The following applies: Severe acute respiratory syndrome coronavirus 2, 48 h, read-out: IC50, inhibition of SARS-CoV-2 (D614) PsV infection.

In the case of `CN1CCN(CCCN2c3ccccc3Sc3ccc(Cl)cc32)CC1` [Prochlorperazine maleate, prochlorperazine maleate], the values for the IC50 with SARS-CoV PsV, in the assay on MERS-CoV PsV and with SARS-CoV-2 (D614) PsV were 773 nM, 855 nM and 259 ± 48 nM, respectively.
